# Source: US20040141955A1, “Compositions related to a novel endophytic fungi and methods of use” (priority 2001, published 2004)
# Like-named read-outs stand apart in the source and are kept apart here. At least one read-out could not be matched to a standard name with certainty.
# Test system: R. solani
# Assay type: cell-based
# Conditions: for Colony diameter at 3 days (mm): untreated control 70-72 mm
# Description: In one set of experiments, a Petri plate divided by plastic walls into 3 equal spaces was used for the assay. A plug of R. solani was placed in one section of the Petri plate containing PDA. On another section of the plate, a lx2 cm piece of sterile filter paper was loaded with the test compound(s). All plates were wrapped with two layers of saran film and incubated at room temperature. The head space in each plate was 65 ml. Removing the agar plug and placing it onto a fresh PDA Petri plate determined the viability of R. Solani exposed to each test compound. Control experiments were also conducted along side without test compound(s).
# The diameter of R. solani colonies on untreated control plates was 70-72 mm. The (+) symbol in the viability column of each table above indicates continued viability of the organism after exposure to and removal from the given compound or mixture, while the (−) symbol indicates death of the organism. Multiple (+) and (−) symbols in the same column indicate the results of multiple trials.
# Synergism between the volatile organic components produced by M. albus was studied using the method of Limpel as described by Richer (Richer, D. L. 1987). The determination of synergy as described by Limpel can be represented by the following equation: […]
# Where Ee is the expected additive effect of the two antifungal compounds, X is the observed percentage of inhibition of the test organism when antifungal agent A is applied alone at the rate used in the mixture, and Y is the observed percentage inhibition of the test organism when antifungal agent B is used alone at the rate used in the mixture.
# Experimental studies were set up to determine if synergy exists between the components produced by M. albus. The biological activity of individual volatile organic compounds and mixtures of volatile organic compounds was tested according to the method described in Example 10 above. The observed inhibitory effects of the volatile organic compounds were then compared to the expected additive effects as calculated from the equation above.
# [1] = single compound, amount 0.92 (60 μl/65 mL head space)
# [2] = single compound, amount 0.11 (7 μl/65 mL head space)
# [3] = single compound, amount 0.23 (15 μl/65 mL head space)
# [4] = single compound, amount 0.46 (30 μl/65 mL head space)
SMILES,Viability [1],Colony diameter at 3 days (mm) [1] [mm],"Viability (Table 13, 30 μl (0.92) or 30 μl each (0.92) per 65 mL head space)",Viability [2],Colony diameter at 3 days (mm) [2] [mm],Viability [3],Colony diameter at 3 days (mm) [3] [mm],Viability [4],Colony diameter at 3 days (mm) [4] [mm]
CCOC(=O)C(C)C [Ethyl isobutyrate],(+),36.5,–,–,–,–,–,–,–
CCOC(=O)CC [Ethyl propionate],(+),13.5,(+),–,–,–,–,–,–
COC(=O)C(C)C [Methyl isobutyrate],–,–,–,(+),56,(+),45.5,(+),32
CCC(C)COC(C)=O (stereo not drawn) [2-Methylbutyl acetate],(+),41,–,(+),70,(+),70,(+),56
CCC(C)C(=O)OC (stereo not drawn) [Methyl 2-methylbutyrate],(+),23.3,–,–,–,–,–,–,–
